Experimental data: PubChem BioAssay AID1508597 (Cure First, 2020)
Shown is one part, drawn at random, of about 2,100 reagents tested. 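Calls flag viability under 80% in either arm, not effects specific to rucaparib; the reference for percent is not stated.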 Not stated in the record: the 100% reference.

Aim: 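Knock-downs altering ovarian cancer cell survival with or without PARP inhibitor rucaparib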 (primary screen)
System: human ovarian carcinoma lines grown from tumours: OCI-P5x (papillary serous) and OCI-C5x (clear cell)
Knock-down reagent: siRNA pool against human genes, 1.25 pmol siRNA per well
Duration: 72 h or 96 h, depending on the cell culture
Conditions: rucaparib 20 µM (about IC30) or vehicle, present until read-out
Read-out: 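Luminescent ATP-based viability assay read 72 or 96 h after transfection, depending on culture, given as normalised percent viability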
Reading the numbers: viability, normalised: higher = more viable cells remaining
Call rule: 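Active when normalised viability falls below 80 percent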
Calls: active = viability under 80%; inactive = viability 80% or more

| gene symbol | rucaparib or vehicle | cell line | technical replicate | viability, normalised (%) | call |
| --- | --- | --- | --- | --- | --- |
| MED31 | Rucaparib | OCI-C5x (clear cell) | 1 | 54.2 | active |
| MED31 | Rucaparib | OCI-C5x (clear cell) | 2 | 45.4 | active |
| MED31 | Rucaparib | OCI-C5x (clear cell) | 3 | 70 | active |
| MED31 | Rucaparib | OCI-P5x (serous) | 1 | 71.9 | active |
| MED31 | Rucaparib | OCI-P5x (serous) | 2 | 74.5 | active |
| MED31 | Rucaparib | OCI-P5x (serous) | 3 | 82.4 | inactive |
| MED31 | Vehicle | OCI-C5x (clear cell) | 1 | 74.9 | active |
| MED31 | Vehicle | OCI-C5x (clear cell) | 2 | 77.7 | active |
| MED31 | Vehicle | OCI-C5x (clear cell) | 3 | 67.7 | active |
| MED31 | Vehicle | OCI-P5x (serous) | 1 | 77.5 | active |
| MED31 | Vehicle | OCI-P5x (serous) | 2 | 84.4 | inactive |
| MED31 | Vehicle | OCI-P5x (serous) | 3 | 76.8 | active |
| ETF1 | Rucaparib | OCI-C5x (clear cell) | 1 | 46.4 | active |
| ETF1 | Rucaparib | OCI-C5x (clear cell) | 2 | 36.2 | active |
| ETF1 | Rucaparib | OCI-C5x (clear cell) | 3 | 33.5 | active |
| ETF1 | Rucaparib | OCI-P5x (serous) | 1 | 64.9 | active |
| ETF1 | Rucaparib | OCI-P5x (serous) | 2 | 48.8 | active |
| ETF1 | Rucaparib | OCI-P5x (serous) | 3 | 47.4 | active |
| ETF1 | Vehicle | OCI-C5x (clear cell) | 1 | 32.6 | active |
| ETF1 | Vehicle | OCI-C5x (clear cell) | 2 | 38.5 | active |
| ETF1 | Vehicle | OCI-C5x (clear cell) | 3 | 33.6 | active |
| ETF1 | Vehicle | OCI-P5x (serous) | 1 | 52.8 | active |
| ETF1 | Vehicle | OCI-P5x (serous) | 2 | 37.9 | active |
| ETF1 | Vehicle | OCI-P5x (serous) | 3 | 53.9 | active |
| HDAC8 | Rucaparib | OCI-C5x (clear cell) | 1 | 74.3 | active |
| HDAC8 | Rucaparib | OCI-C5x (clear cell) | 2 | 55 | active |
| HDAC8 | Rucaparib | OCI-C5x (clear cell) | 3 | 59.9 | active |
| HDAC8 | Rucaparib | OCI-P5x (serous) | 1 | 82.3 | inactive |
| HDAC8 | Rucaparib | OCI-P5x (serous) | 2 | 80.1 | inactive |
| HDAC8 | Rucaparib | OCI-P5x (serous) | 3 | 75.8 | active |
| HDAC8 | Vehicle | OCI-C5x (clear cell) | 1 | 57.3 | active |
| HDAC8 | Vehicle | OCI-C5x (clear cell) | 2 | 64.2 | active |
| HDAC8 | Vehicle | OCI-C5x (clear cell) | 3 | 65.6 | active |
| HDAC8 | Vehicle | OCI-P5x (serous) | 1 | 95.6 | inactive |
| HDAC8 | Vehicle | OCI-P5x (serous) | 2 | 96.1 | inactive |
| HDAC8 | Vehicle | OCI-P5x (serous) | 3 | 84.5 | inactive |

Laid out differently: entries from further up.
gene symbol	rucaparib or vehicle	cell line	technical replicate	viability, normalised (%)	call
MED31	Rucaparib	OCI-C5x (clear cell)	2	45.4	active
MED31	Rucaparib	OCI-C5x (clear cell)	3	70	active
MED31	Rucaparib	OCI-P5x (serous)	1	71.9	active
MED31	Rucaparib	OCI-P5x (serous)	2	74.5	active

More records follow.
| gene symbol | rucaparib or vehicle | cell line | technical replicate | viability, normalised (%) | call |
| --- | --- | --- | --- | --- | --- |
| TAF5L | Rucaparib | OCI-C5x (clear cell) | 1 | 47.4 | active |
| TAF5L | Rucaparib | OCI-C5x (clear cell) | 2 | 48.1 | active |
| TAF5L | Rucaparib | OCI-C5x (clear cell) | 3 | 45.9 | active |
| TAF5L | Rucaparib | OCI-P5x (serous) | 1 | 57 | active |
| TAF5L | Rucaparib | OCI-P5x (serous) | 2 | 58.2 | active |
| TAF5L | Rucaparib | OCI-P5x (serous) | 3 | 67.5 | active |
| TAF5L | Vehicle | OCI-C5x (clear cell) | 1 | 62 | active |
| TAF5L | Vehicle | OCI-C5x (clear cell) | 2 | 45.9 | active |
| TAF5L | Vehicle | OCI-C5x (clear cell) | 3 | 64.7 | active |
| TAF5L | Vehicle | OCI-P5x (serous) | 1 | 73.3 | active |
| TAF5L | Vehicle | OCI-P5x (serous) | 2 | 78 | active |
| TAF5L | Vehicle | OCI-P5x (serous) | 3 | 80.9 | inactive |
| ENPP7 | Rucaparib | OCI-C5x (clear cell) | 1 | 53.8 | active |
| ENPP7 | Rucaparib | OCI-C5x (clear cell) | 2 | 66.2 | active |
| ENPP7 | Rucaparib | OCI-C5x (clear cell) | 3 | 44.1 | active |
| ENPP7 | Rucaparib | OCI-P5x (serous) | 1 | 57.2 | active |
| ENPP7 | Rucaparib | OCI-P5x (serous) | 2 | 52.6 | active |
| ENPP7 | Rucaparib | OCI-P5x (serous) | 3 | 58.4 | active |
| ENPP7 | Vehicle | OCI-C5x (clear cell) | 1 | 57.5 | active |
| ENPP7 | Vehicle | OCI-C5x (clear cell) | 2 | 53.2 | active |
| ENPP7 | Vehicle | OCI-C5x (clear cell) | 3 | 53.3 | active |
| ENPP7 | Vehicle | OCI-P5x (serous) | 1 | 57.5 | active |
| ENPP7 | Vehicle | OCI-P5x (serous) | 2 | 62.8 | active |
| ENPP7 | Vehicle | OCI-P5x (serous) | 3 | 82.9 | inactive |
